# According to PubChem BioAssay AID588497 (NMMLSC, 2011):
# Out of some 360,000 compounds screened, about 780 (0.22%) were called active. The shares of active, inactive and inconclusive entries below differ from those in the screen. Cut-off read from the data, not from the text of the source: active = inhibition above about 35% (passing the limit was not always enough); inconclusive = no clear call, values can overlap the other calls.
# Test system: Botulinum neurotoxin type F light chain protease (Clostridium botulinum)
# Test: BoNT/F light chain protease inhibitors, primary screen, biochemical, flow cytometry, MLPCN library (AID 588497); note: plate controls were buffer without enzyme for full effect and enzyme alone for no effect
# Details: Multiplex microsphere protease cleavage assay, at 10 µM, stronger effect = higher value
row,SMILES,inhibition
1,COC(=O)c1[nH]c(C)c(/C(O)=C2\C(=O)C(=O)N(CCN3CCOCC3)C2c2ccco2)c1C (stereo unspecified),inconclusive: 37.8%
2,NC(=O)CCC(=O)N1CCCC(C(=O)c2ccc(C(F)(F)F)cc2)C1 (stereo unspecified),inconclusive: 24%
3,CSc1ncccc1C(=O)OCC(=O)NC1CC1,inconclusive: 3.2%
4,O=C(Nc1ccc(-c2csnn2)cc1)C(Cl)(Cl)Cl,inconclusive: 36.3%
5,O=C1CC2(CCN(C(=O)c3cccc([N+](=O)[O-])c3)CC2)Oc2ccccc21,inactive: -5.1%
6,CC(=O)Nc1ccc(S(=O)(=O)N2CCN(c3nc(C)cc(C)n3)CC2)cc1,inconclusive: -8.9%
7,O=C(N/N=C/c1cccc2cccnc12)[C@H]1C[C@@H]1c1ccccc1,inconclusive: 65.8%
8,Cc1cc(Br)ccc1OCc1nnc(-c2ccccc2)o1,inconclusive: -69.7%
9,O=S(=O)(Nc1nc2ccccc2nc1N1CCN(CCO)CC1)c1cc(F)ccc1F,inconclusive: 8.7%
10,COc1ccc(CC2SC(N)=NC2=O)cc1 (stereo unspecified),inconclusive: 25.3%
11,Brc1ccccc1C1=Nn2c(nnc2-c2ccco2)SC1,inconclusive: 31.2%
12,COc1cc(/C=C/C(=O)Nc2cccc(S(=O)(=O)NC3=NCCCCC3)c2)ccc1OCC#N,inconclusive: 10%
13,CC1=CC(c2ccccc2)n2nc(NC(=O)CCC(=O)O)nc2N1 (stereo unspecified),inactive: 0.6%
14,COC(=O)CSc1nnc(-c2c[nH]c3ccccc23)o1,inconclusive: 21.2%
15,COc1ccc(CN=C2Nc3ccccc3CS2)cc1,inconclusive: -9%
16,CC1=NN(c2ccccc2)C(=O)/C1=C\c1cc(C)n(C)c1C,inconclusive: -20.9%
17,CC(CCc1ccccc1)NS(=O)(=O)c1ccccc1 (stereo unspecified),inconclusive: 6.1%
18,CCOc1ccccc1NC(=O)NC1CCN(CC(=O)Nc2ccc3c(c2)OCCO3)CC1,inconclusive: -24.6%
19,CCOC(=O)c1ccc(COc2nc3ccccc3nc2-c2ccccc2NC(C)=O)o1,inconclusive: 11.8%
20,Cc1ccccc1/C=N/N=C1/NC(=O)CCS1,inconclusive: 56.1%
21,Cc1ccc(C2CC(c3cccs3)=NN2C(=O)CCl)cc1 (stereo unspecified),inactive: 31.4%
22,Cn1c(=O)c2c(nc(N/N=C/c3cccnc3)n2Cc2ccc(F)cc2)n(C)c1=O,inconclusive: 125%
23,O=C(Nc1nc2ccc(S(=O)(=O)N3CCOCC3)cc2s1)c1cccs1,inactive: -8.2%

row,SMILES,inhibition
1,CC(NC(=O)Cn1cc(Br)c([N+](=O)[O-])n1)c1ccccc1 (stereo unspecified),inconclusive: -36.7%
2,O=C(N/N=C/c1cc(Cl)cc([N+](=O)[O-])c1O)C(O)(c1ccccc1)c1ccccc1,inconclusive: -3%
3,NC(c1ccccc1)c1csc(Nc2ccc(S(N)(=O)=O)cc2)n1 (stereo unspecified),inactive: -5.1%
4,S=C(NCc1cccnc1)c1ccccc1,inconclusive: -18.1%
5,CCOC(=O)Nc1ccc(S(=O)(=O)Nc2cc(C)nc(C)n2)cc1,inactive: 1.5%
6,Cc1csc2ncnc(NC3CCN(Cc4ccccc4)CC3)c12,inconclusive: -29.1%
7,O=C(NCCCCNC(=O)c1ccccc1Br)c1ccccc1Br,inactive: 12%
8,Cc1nnc(SCC(=O)Nc2sc3c(c2C#N)CCCC3)[nH]c1=O,inconclusive: -24.8%
9,Cn1c(SCC(=O)Nc2ccc(Br)cc2)nc(O)cc1=O,inconclusive: -90.6%
10,Cc1ccc([N+](=O)[O-])cc1NC(=O)CSc1n[nH]c(-c2cccnc2)n1,inactive: -3.6%
11,CN1/C(=C\C(=O)CSc2nnc(NCc3ccccc3)s2)C(C)(C)c2ccccc21,inactive: 7.7%
12,CC(OC(=O)CN1C(=O)C2C3C=CC(C4CC34)C2C1=O)C(=O)c1ccccc1 (stereo unspecified),inconclusive: -68.7%
13,COc1ccc(CNC2CCN(Cc3ccccc3)CC2)cc1,inconclusive: -35%
14,Nc1c(N(CCCO)C(=O)C2CCCCC2)c(=O)[nH]c(=O)n1Cc1ccccc1,inactive: 1.1%
15,O=C(COC(=O)CCN1C(=O)/C(=C\C=C\c2ccccc2)SC1=S)Nc1cc(F)ccc1F,inactive: 10.7%
16,CC(=O)c1ccc(NC(=O)N2C3CCC2CC(O)(c2cccnc2)C3)cc1 (stereo unspecified),inactive: -17.1%
17,Clc1cc(Br)ccc1OCCOCCN1CCCC1,inconclusive: 19.5%
18,Nc1ccn([C@@H]2O[C@H](C(=O)N[C@H](CO)c3ccccc3)[C@@H](O)[C@H]2O)c(=O)n1,inactive: -4%
19,CCNC(=O)C1CCCN(C(=O)C(c2ccccc2)c2ccccc2)CC1 (stereo unspecified),inactive: -3.6%
20,CC1(C)CCc2cc(-c3ccn(S(=O)(=O)c4ccccc4Cl)n3)ccc2O1,inconclusive: -13.5%
21,COc1ccc(-n2nc3cc(C)c(NC(C)=O)cc3n2)cc1,inactive: -6.2%
22,N#Cc1ccccc1OCC(=O)Nc1nnc(C2CC2)s1,inactive: -3.6%
23,Cn1c(CSCc2ccc(F)cc2)n[nH]c1=S,inconclusive: -7.1%

# Pulled by compound from above (2):
row,SMILES,inhibition
9,Cn1c(SCC(=O)Nc2ccc(Br)cc2)nc(O)cc1=O,inconclusive: -90.6%
5,CCOC(=O)Nc1ccc(S(=O)(=O)Nc2cc(C)nc(C)n2)cc1,inactive: 1.5%

# Later entries:

row,SMILES,inhibition
1,Cc1ccnc(NC(=O)CCC(=O)N(CC(=O)NC2CCCCC2)c2cccc(C)c2C)c1,inconclusive: 3.7%
2,COc1ccc(Cc2nnc(NC(=O)c3cccc(F)c3)s2)cc1OC,inconclusive: -22.1%
3,COc1ccccc1CCC(=O)N(C)C1CCCN(Cc2ccccc2F)C1 (stereo unspecified),inconclusive: -1.5%
4,O=C(NCCC1CCCCN1S(=O)(=O)c1ccc(F)cc1)C(=O)NCC1CCCO1 (stereo unspecified),inconclusive: 10.1%
5,Cc1ccc2c(c1)c1c(n2CC(O)CN2CCCCCC2)CCCC1 (stereo unspecified),inactive: -21.8%
6,CCCCC(C(=O)NC1CCCC1)N(Cc1ccco1)C(=O)Cn1nnc(-c2ccc(F)cc2)n1 (stereo unspecified),inconclusive: 16.4%
7,Cc1ccc(-c2nc(CS(=O)CC(=O)NCc3ccc4c(c3)OCO4)c(C)o2)cc1 (stereo unspecified),inactive: -5.4%
8,Cc1ccc(OCC(=O)N/N=C/c2cn(C)c3ccccc23)cc1,inconclusive: -24.4%
9,Cc1ccc(OCCOCCN2CCCC2)c(Br)c1,inconclusive: -16.6%
10,CN(C)/C=N/n1cnc2ccccc2c1=O,inconclusive: 11.4%
11,CCOC(=O)C1=CNS(=O)(=O)NC1c1ccc(C(F)(F)F)cc1 (stereo unspecified),inactive: 1.3%
12,C/C(=N/NC(=O)c1cc(C)[nH]n1)c1ccco1,inconclusive: -18%
13,COc1ccc(CCNC(=S)NC2CCN(Cc3ccccc3)CC2)cc1OC,inactive: 5.9%
14,CCN(CC)c1ccc(/C=C/C(=O)C2C(=O)C=C(C)OC2=O)cc1 (stereo unspecified),active: 154%
15,O=C1CC(c2ccc(F)cc2)Sc2ccccc2N1 (stereo unspecified),inconclusive: -7.6%
16,CCCn1c(=O)c2c(nc3n2CCCN3Cc2ccccc2)n(C)c1=O,active: 41.3%
17,COc1cccc(CN2C(=O)CN(C3CCCCC3)C(=O)C2c2ccc(F)cc2)c1 (stereo unspecified),inactive: -4.4%
18,CN1\C(=C/C=C/C=C/C=[N+](C)C)C(C)(C)c2ccccc21,inconclusive: -66.7%
19,CC(C)(C)c1cc(C(F)(F)F)nc(SCCCNC(=O)c2ccco2)n1,inconclusive: -17.2%
20,Cc1cc(C)cc(NC(=O)CSc2nnc(CNC(=O)c3cccs3)o2)c1,inconclusive: 18.2%
21,CCOc1ccc(NC(=O)[C@@H](NC(=O)c2ccccc2Br)C(C)C)cc1,inconclusive: -24.7%
22,COC(=O)c1ccc(N2C(=O)C3C4C=CC(CC4)C3C2=O)cc1 (stereo unspecified),inconclusive: -35.6%
23,CC(C)(C)NNC(=S)Nc1cccc(F)c1,inconclusive: -5%

row,SMILES,inhibition
1,Cc1ccc(-n2c(-c3ccc(Cl)cc3Cl)n[nH]c2=S)cc1,inconclusive: -17.6%
2,COc1ccccc1NCCC(=O)O,inactive: 3.2%
3,O=C(NN1CCOCC1)c1ccccc1Br,inconclusive: -8.7%
4,CCN(CC)c1ccc(NC(=O)Cn2c(C(C)NC(=O)c3ccc(C)cc3)nc3ccccc32)cc1 (stereo unspecified),inactive: -3.2%
5,C/C(=N\NC(=S)Nc1ccccc1C)C1Cc2ccccc2C(=O)O1 (stereo unspecified),inconclusive: -282%
6,CN(C)S(=O)(=O)c1ccc(C(=O)Nc2ccc3ncccc3c2)cc1,inconclusive: -37.2%
7,CSCC[C@H](NC(=O)OC(C)(C)C)C(=O)N1CCC(C(=O)N[C@H](C(=O)O)C(C)C)CC1,inactive: -5.2%
8,CCOc1ccc([N+](=O)[O-])cc1CNC1CCCCCCC1,inconclusive: 9.7%
9,COc1cccc(OCCOc2c(OC)cccc2OC)c1,active: 36.7%
10,CN(CC(=O)Nc1ccc(F)cc1)C(=O)COC(=O)Cc1cccs1,active: 40%
11,Cc1noc(C)c1-c1nc(CS(=O)(=O)c2ccc(F)cc2)no1,inconclusive: -9.6%
12,Cc1cc(NCCCCCCCNc2cc(C)nc3cc([N+](=O)[O-])ccc23)c2ccc([N+](=O)[O-])cc2n1,inactive: -111%
13,Cc1cc(NCCOCCO)n2c(nc3ccccc32)c1C#N,inconclusive: -18.3%
14,Cc1cc(N2C(=O)c3ccccc3C2=O)n(C)n1,inconclusive: 34.1%
15,Cc1cc(C)c(S(=O)(=O)c2ccccc2)c(=O)[nH]1,inconclusive: 0.6%
16,CCN1CCN(CCCNC(=O)C2c3ccccc3C(=O)N(c3ccc(OC)cc3)C2c2ccc(OC)cc2)CC1 (stereo unspecified),inactive: -3.1%
17,CCn1cc(C(=O)NCc2cccc(F)c2)c(=O)c2cc(F)c(N3CCN(C(=O)c4ccco4)CC3)cc21,inactive: -5%
18,COC(=O)c1cc(S(=O)(=O)Nc2nn(C)c3ccccc23)oc1C,inconclusive: -17.1%
19,COCC(=O)NC1CC(C)(C)Cc2c1cnn2-c1ccc(F)cc1 (stereo unspecified),inconclusive: 17.2%
20,CC(CCc1ccccc1)NC(=O)C1CCC1 (stereo unspecified),inconclusive: 51.1%
21,Oc1cccc2ccc(/C=C/c3ccccc3Br)nc12,inconclusive: -15.5%
22,N#Cc1cccc(Cn2cc(C(F)(F)F)ccc2=O)c1,inconclusive: -3.9%

# 6 compounds from above, sorted by molar mass, low to high:
row,SMILES,inhibition
20,CC(CCc1ccccc1)NC(=O)C1CCC1 (stereo unspecified),inconclusive: 51.1%
9,COc1cccc(OCCOc2c(OC)cccc2OC)c1,active: 36.7%
13,Cc1cc(NCCOCCO)n2c(nc3ccccc32)c1C#N,inconclusive: -18.3%
5,C/C(=N\NC(=S)Nc1ccccc1C)C1Cc2ccccc2C(=O)O1 (stereo unspecified),inconclusive: -282%
6,CN(C)S(=O)(=O)c1ccc(C(=O)Nc2ccc3ncccc3c2)cc1,inconclusive: -37.2%
17,CCn1cc(C(=O)NCc2cccc(F)c2)c(=O)c2cc(F)c(N3CCN(C(=O)c4ccco4)CC3)cc21,inactive: -5%
